For this assay, the system named is Candida albicans wild type strain SN250. Nature of the assay: Screen for inhibition of Candida albicans lawn formation (halo) on solid serum (FBS agar) plates. The class given is cell-based. The settings on record: 5 μl of 10 mM drug on fungal lawn, 25° C. and 37° C. How it is done: C. albicans was plated on solid YPD and serum plates, and 5 μl of each 10 mM drug was placed on top of the fungal lawn. The effect of exposure to each of the compounds from the library was assayed for its ability to inhibit C. albicans growth, as well as ability to form a halo within the fungal lawn. […] (FIG. 1A).
Media and Growth Conditions: C. albicans strains were cultured with 5 ml of YPD (1% yeast extract, 2% peptone, 2% dextrose, pH 6) medium at 30° C. overnight. Bacterial cells were cultured in LB (Luria-Bertani) medium consisting of 5 g Bacto-Tryptone, 2.5 g Bacto-Yeast Extract, 5 g NaCl and 7.5 g of 2% agar if preparing solid plates. The centrifuge tubes were incubated at 37° C. and left shaking overnight at 150 rpm. Fetal bovine serum was incorporated into agar. Fetal bovine serum was preheated in a water bath set at 65° C. […] The agar solution for the serum mixture consisted of 16 g agar, which was then brought up to 300 ml with nanopure water. The agar solution was then autoclaved at 120° C. for 45 minutes. The agar and serum mixtures were then amalgamated while in their isothermal states.
High-throughput Screening Assay: The sensitivity of C. albicans against compounds was assessed by a high-throughput chemical screen. 200 μl of C. albicans overnight culture were spread onto petri dishes containing either YPD or fetal bovine serum. […]

Each structure is given as a SMILES string.

`CC(C)(C)CC(C)(C)c1ccc(OCCOCC[N+](C)(C)Cc2ccccc2)cc1` [Methyl-benzethonium chloride]: the “inhibition of C. albicans growth (halo formation) on serum plates” value was “strongest inhibition”.

Values taken from patent US9439876B2, “Method of treating microbial infections” (priority 2014, dated 2016).
